Measured values published in patent US20210340562.

Biological target: T1, R2Bm protein (WT) (UniProt V9H052)
T1 sequence (looked up, limits assumed): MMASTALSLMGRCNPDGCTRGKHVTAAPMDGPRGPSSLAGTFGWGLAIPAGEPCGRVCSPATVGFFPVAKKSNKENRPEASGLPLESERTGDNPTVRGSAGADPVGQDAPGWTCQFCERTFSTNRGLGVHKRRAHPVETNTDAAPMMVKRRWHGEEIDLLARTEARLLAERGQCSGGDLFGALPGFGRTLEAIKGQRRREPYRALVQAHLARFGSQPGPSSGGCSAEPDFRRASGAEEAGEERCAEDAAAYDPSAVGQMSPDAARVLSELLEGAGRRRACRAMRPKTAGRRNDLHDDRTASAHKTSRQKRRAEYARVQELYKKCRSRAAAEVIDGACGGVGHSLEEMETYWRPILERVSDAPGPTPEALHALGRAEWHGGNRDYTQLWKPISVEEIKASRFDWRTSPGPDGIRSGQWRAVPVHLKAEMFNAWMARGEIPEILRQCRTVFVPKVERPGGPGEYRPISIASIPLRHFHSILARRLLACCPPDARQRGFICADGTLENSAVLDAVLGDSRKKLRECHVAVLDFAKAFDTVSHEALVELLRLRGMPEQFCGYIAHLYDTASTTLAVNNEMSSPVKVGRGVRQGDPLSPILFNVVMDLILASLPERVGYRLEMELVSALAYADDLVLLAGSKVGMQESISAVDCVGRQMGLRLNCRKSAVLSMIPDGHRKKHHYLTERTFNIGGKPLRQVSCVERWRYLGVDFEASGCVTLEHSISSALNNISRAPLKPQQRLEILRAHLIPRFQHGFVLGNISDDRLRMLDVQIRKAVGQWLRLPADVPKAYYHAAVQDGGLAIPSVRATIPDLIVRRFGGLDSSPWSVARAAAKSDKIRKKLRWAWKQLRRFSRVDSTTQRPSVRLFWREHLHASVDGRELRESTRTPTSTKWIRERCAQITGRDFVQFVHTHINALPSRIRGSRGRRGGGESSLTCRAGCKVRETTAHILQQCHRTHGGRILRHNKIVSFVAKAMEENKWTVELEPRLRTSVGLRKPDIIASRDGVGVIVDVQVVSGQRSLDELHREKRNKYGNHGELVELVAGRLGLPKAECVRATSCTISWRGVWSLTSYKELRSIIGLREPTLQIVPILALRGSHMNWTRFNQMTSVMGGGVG
Experiment: EMSA
Settings: no RNA, purified recombinant protein, protein details: Talon-resin purified, expressed in BL21 E. coli

Does “CCTCGAGGGATCCGTCCTAGCAAGCCGCTGCTACCGGAAGCTTCTGGACC (double strand) [nonspecific linear DNA]” bind (similar to junction individually, bound only after junction in competition, label: 5' 32P on b-strand)?
Result: binds more weakly

Does “CCTCGAGGGATCCGTCCTAGCAAGCCGCTGCTACCGGAAGCTTCTGGACC / GCTCGAGTCTAGACTGCAGTTGAGAGCTTGCTAGGACGGATCCCTCGAGG / GGTCCAGAAGCTTCCGGTAGCAGCGAGAGCGGTGGTTGAATTCCTCGACG / CGTCGAGGAATTCAACCACCGCTCTTCTCAACTGCAGTCTAGACTCGAGC [nonspecific 4-way junction]” bind (preferred over nonspecific linear DNA in competition (more than two-fold), dIdC competitor, binding greatly inhibited by 5' PBM RNA, label: 5' 32P, folded or branched DNA)?
Result: binds

The exact form of at least one protein or probe is not confirmed. The comparison behind a weaker result is the experiment's own reference, which may not be listed here. Where a protein sequence is shown, tags need not be part of it.
